The list shows only some results of the screen, not a fair sample: it gathers tests that were run many times, whatever their T/C, doses with no T/C, and many T/C values between a quarter and a half above the control. Other doses and runs of a compound stand elsewhere. T/C gives the treated animals as a percentage of the vehicle group. Some entries give survivors of the animals treated and no T/C: the source files T/C as zero there, which appears to mark a toxic dose or a test without result, not a measured value. Some survivor counts are full or nearly so, which does not show that the dose was tolerated: survival well below the control is almost never listed, so the zero probably covers shortened survival too. Survivors were counted at the toxicity check, usually on the fifth day, unless a day is given; later deaths do not show. Schedule codes are those of the source, read here as Q, the interval in days (D) or hours (H), X, the number of doses. For survival time, the PubChem record calls one and a half times the control and up active, and a quarter to a half above the control has no call in these data; cut-offs in other NCI protocols can differ. Some doses were run more than once; their values stand side by side, smallest first. Some T/C values are followed by the survivors on the day toxicity was checked, most often the fifth; where none is given, no animal had died by that day.
Test system: P388 leukemia ip, CD2F1 mice, survival T/C
Test: NCI In Vivo Anticancer Drug Screen. Data for tumor model P388 Leukemia (intraperitoneal) in CD2F1 (CDF1) mice
Details: T/C endpoint: median survival time, higher T/C = longer survival
[1] = dose: 100.0 mg/kg/injection, schedule: Q01DX009 (ip), vehicle: saline with Tween-80
[2] = dose: 400.0 mg/kg/injection, schedule: Q01DX009 (ip), vehicle: saline with Tween-80
[3] = dose: 50.0 mg/kg/injection, schedule: Q01DX009 (ip), vehicle: saline
[4] = dose: 100.0 mg/kg/injection, schedule: Q01DX009 (ip), vehicle: saline
[5] = dose: 200.0 mg/kg/injection, schedule: Q01DX009 (ip), vehicle: saline
[6] = dose: 200.0 mg/kg/injection, schedule: Q01DX009 (ip), vehicle: Klucel (hydroxypropylcellulose) (HPC)
[7] = dose: 100.0 mg/kg/injection, schedule: Q01DX005 (ip), vehicle: saline with Tween-80
[8] = dose: 200.0 mg/kg/injection, schedule: Q01DX009 (ip), vehicle: saline with Tween-80
[9] = dose: 3.12 mg/kg/injection, schedule: Q01DX009 (ip), vehicle: saline
[10] = dose: 6.25 mg/kg/injection, schedule: Q01DX009 (ip), vehicle: saline
[11] = dose: 25.0 mg/kg/injection, schedule: Q01DX009 (ip), vehicle: saline

O=C1NC(c2cccc3ccccc23)Nc2ccc(O)cc21 (stereo unspecified) was tested, and the survivor count (dose: 100.0 mg/kg/injection, schedule: Q01DX005 (ip), vehicle: DMSO) was 6 of 6, the survivor count (dose: 200.0 mg/kg/injection, schedule: Q01DX005 (ip), vehicle: DMSO) was 6 of 6 and the survivor count (dose: 400.0 mg/kg/injection, schedule: Q01DX005 (ip), vehicle: DMSO) was 6 of 6.
In the case of C(=N\Nc1nnc2c3cccnc3c3ccccc3c2n1)/c1ccc2c(c1)OCO2, the survivor count (dose: 400.0 mg/kg/injection, schedule: Q01DX001 (ip), vehicle: saline with Tween-80) is reported as 1 of 6.
For OCCN1CCN(CC/C=C2\c3ccccc3COc3ccc(Cl)cc32)CC1, the T/C (dose: 25.0 mg/kg/injection, schedule: Q04DX003 (ip), vehicle: saline) was 125 % of control and the T/C (dose: 50.0 mg/kg/injection, schedule: Q04DX003 (ip), vehicle: saline) was 145 % of control [5 of 6 alive].
COC(=O)c1nc(N)nc(C(=O)OC)c1C(=O)c1ccccn1 was tested, and the survivor count (dose: 240.0 mg/kg/injection, schedule: Q01DX005 (ip), vehicle: Klucel (hydroxypropylcellulose) (HPC)) was 2 of 6.
For COc1cc2c(cc1O)c[n+](C)c1c3cc(OC)c(OC)cc3ccc21, the T/C (dose: 15.6 mg/kg/injection, schedule: Q01DX009 (ip), vehicle: other) was 129 % of control.
With CCCCn1c2nc(=O)n(C)c(=O)c-2cc2ccccc21 the T/C [1] was 132 % of control and the survivor count [1] was 6 of 6.
With Cc1ccc(NC(=O)Oc2c(C)cc(Cl)cc2C)c([N+](=O)[O-])c1 the survivor count [1] was 6 of 6.
In the case of CC1CC(C)(C)N=C(Cc2ccccc2)O1 (stereo unspecified), the survivor count [2] is reported as 0 of 6.
C=C1C(=O)OC2/C=C(\C)C3OC3/C=C(/C(=O)OC)C(OC(C)=O)C(OC(=O)C(C)(O)C(C)OC(C)=O)C12 (stereo unspecified) was tested, and the T/C (dose: 3.0 mg/kg/injection, schedule: Q01DX009 (ip), vehicle: Klucel (hydroxypropylcellulose) (HPC)) was 125 and 129 % of control, the T/C (dose: 6.0 mg/kg/injection, schedule: Q01DX009 (ip), vehicle: Klucel (hydroxypropylcellulose) (HPC)) was 126 and 140 % of control and the T/C (dose: 12.0 mg/kg/injection, schedule: Q01DX009 (ip), vehicle: Klucel (hydroxypropylcellulose) (HPC)) was 138 and 140 % of control. The survivor count (dose: 24.0 mg/kg/injection, schedule: Q01DX009 (ip), vehicle: Klucel (hydroxypropylcellulose) (HPC)) was 3 of 6, the survivor count (dose: 48.0 mg/kg/injection, schedule: Q01DX009 (ip), vehicle: Klucel (hydroxypropylcellulose) (HPC)) was 0 of 6 and the survivor count (dose: 96.0 mg/kg/injection, schedule: Q01DX009 (ip), vehicle: Klucel (hydroxypropylcellulose) (HPC)) was 0 of 6.
In the case of CC(=O)Nc1ccc2nc3ccc(NC(C)=O)cc3[n+](-c3ccccc3)c2c1, the T/C (dose: 15.6 mg/kg/injection, schedule: Q01DX010 (ip), vehicle: saline) is reported as 145 % of control.
In the case of O=C(OC1C2CCC2C2CC21)c1ccc([N+](=O)[O-])cc1[N+](=O)[O-] (stereo unspecified), the survivor count [3] is reported as 4 of 6.
O=C(NCCCl)Oc1cccn(C(=O)NCCCl)c1=O was tested, and the survivor count [4] was 5 of 6, the survivor count [5] was 0 of 6 and the survivor count (dose: 400.0 mg/kg/injection, schedule: Q01DX009 (ip), vehicle: saline) was 0 of 6. For the same compound, the survivor count (dose: 400.0 mg/kg/injection, schedule: Q01DX009 (sc), vehicle: saline with Tween-80) was 4 of 6.
CCCS(=O)(=O)N/N=C(\C)c1cccs1 was tested, and the survivor count [6] was 6 of 6.
For CC(C)[CH2][Pb]([CH2]C(C)C)([CH2]C(C)C)[n]1ccnc1, the survivor count [3] was 0 of 6, the survivor count [4] was 0 of 6 and the survivor count [5] was 0 of 6.
For CC(C)N1C(=O)N(Cl)C2C1N(Cl)C(=O)N2Cl (stereo unspecified), the T/C [7] was 126 % of control.
CC(=O)N1CC(=O)NC1=S was tested, and the survivor count [2] was 5 of 6.
With Clc1ccc(-c2nnc(Nc3ccnc4cc(Cl)ccc34)s2)cc1 the survivor count [7] was 3 of 6 and the survivor count (dose: 200.0 mg/kg/injection, schedule: Q01DX005 (ip), vehicle: saline with Tween-80) was 0 of 6.
Cc1cc(NN=O)nc(C)c1C#N was tested, and the T/C (dose: 12.5 mg/kg/injection, schedule: Q01DX009 (ip), vehicle: water) was 125 % of control.
In the case of CCCC(CCC)NCC(O)c1cc(-c2ccc(C(F)(F)F)cc2)nc(C(F)(F)F)c1 (stereo unspecified), the survivor count [1] is reported as 0 of 6 and the survivor count [8] is reported as 0 of 6.
In the case of COC(=O)c1nnn(-c2cc(Cl)ccc2Cl)c1N, the T/C (dose: 120.0 mg/kg/injection, schedule: Q01DX005 (ip), vehicle: saline with Tween-80) is reported as 126 % of control and the survivor count (dose: 240.0 mg/kg/injection, schedule: Q01DX005 (ip), vehicle: saline with Tween-80) is reported as 4 of 6.
In the case of COc1cc2c(c(OC)c1OC)-c1ccc(OC)c(=O)cc1[C@@H](NC(=O)c1ccc([N+](=O)[O-])cc1)CC2, the T/C (dose: 0.78 mg/kg/injection, schedule: Q01DX009 (ip), vehicle: Klucel (hydroxypropylcellulose) (HPC)) is reported as 130 % of control, the T/C (dose: 1.56 mg/kg/injection, schedule: Q01DX009 (ip), vehicle: Klucel (hydroxypropylcellulose) (HPC)) is reported as 143 % of control and the T/C (dose: 2.0 mg/kg/injection, schedule: Q01DX009 (ip), vehicle: Klucel (hydroxypropylcellulose) (HPC)) is reported as 128 % of control. The T/C (dose: 3.12 mg/kg/injection, schedule: Q01DX009 (ip), vehicle: Klucel (hydroxypropylcellulose) (HPC)) was 134 % of control, the T/C (dose: 4.0 mg/kg/injection, schedule: Q01DX009 (ip), vehicle: Klucel (hydroxypropylcellulose) (HPC)) was 136 % of control [5 of 6 alive] and the T/C (dose: 6.25 mg/kg/injection, schedule: Q01DX009 (ip), vehicle: Klucel (hydroxypropylcellulose) (HPC)) was 148 % of control. The survivor count (dose: 12.5 mg/kg/injection, schedule: Q01DX009 (ip), vehicle: Klucel (hydroxypropylcellulose) (HPC)) was 4 of 6 and the survivor count (dose: 25.0 mg/kg/injection, schedule: Q01DX009 (ip), vehicle: Klucel (hydroxypropylcellulose) (HPC)) was 2 of 6.
For Clc1cc(Cl)c(Cl)nn1, the survivor count [6] was 0 of 6.
With C=CC(=NC(C)(C)C)Nc1ccccc1C the survivor count (dose: 1.56 mg/kg/injection, schedule: Q01DX009 (ip), vehicle: saline) was 6 of 6, the T/C [9] was 98, 100, 126 % of control and the survivor count [9] was 6 of 6. The T/C [10] was 93, 94, 111, 125 % of control, the survivor count (dose: 12.5 mg/kg/injection, schedule: Q01DX009 (ip), vehicle: saline) was 2 of 6 and the survivor count [11] was 0 of 6. For the same compound, the survivor count (dose: 50.0 mg/kg/injection, schedule: Q01DX009 (ip), vehicle: saline with Tween-80) was 0 of 6, the survivor count [3] was 0 of 6 and the survivor count [1] was 0 of 6. For the same compound, the survivor count [8] was 0 of 6.
With C/C(COc1ccc([N+](=O)[O-])cc1)=N/NS(=O)(=O)c1cc(Cl)c(Cl)cc1Cl the survivor count [4] was 6 of 6 and the survivor count [5] was 6 of 6.
N/C(=N\OC(=O)Nc1ccc(CSc2ccc(Cl)cc2)o1)c1ccccn1 was tested, and the T/C (dose: 100.0 mg/kg/injection, schedule: Q01DX005 (ip), vehicle: Klucel (hydroxypropylcellulose) (HPC)) was 126 % of control and the survivor count (dose: 200.0 mg/kg/injection, schedule: Q01DX005 (ip), vehicle: Klucel (hydroxypropylcellulose) (HPC)) was 4 of 6.
With CCOC(=O)[C]1([Hg][CH3])N=NC(C(=O)OC)=C1C(=O)OC (stereo unspecified) the survivor count [10] was 6 of 6, the survivor count [11] was 0 of 6 and the survivor count [3] was 0 of 6. For the same compound, the survivor count [4] was 0 of 6 and the survivor count [5] was 0 of 6.
For COc1ccc(SSc2ccc(OC)n[n+]2[O-])[n+]([O-])n1, the survivor count (dose: 400.0 mg/kg/injection, schedule: Q01DX001 (ip), vehicle: Klucel (hydroxypropylcellulose) (HPC)) was 1 of 6.

Reference: PubChem BioAssay AID330 (DTP/NCI, 2004)
